Measurements from patent publication US10683327B2 (priority 2015, dated 2020).

Experiment: general procedure: solution-phase peptide synthesis; HATU/DIPEA; HBTU/DIPEA; EEDQ; pentafluorophenyl esters
Conditions: for conjugation yield: conjugation step

Substance | conjugation yield | step yield (late stage modification step)
Zoptarelin-GA-SAA1-Val-Cit-APEA-AF | 43% | –
MC-SAA4-Val-Cit-APEA-AF | 70% | –
MC-SAA3-SAA3-Val-Cit-APEA-AF | 52% | –
MC-SAA1-SAA1-Val-Cit-APEA-AF | – | 53%
MC-SAA3-Val-Cit-APEA-AF | 55% | –
